Experimental data: PubChem BioAssay AID504764 (Drosophila RNAi Screening Center, 2011)
The screen tested about 22,000 reagents; shown is an unselected part of those with a known target gene and a result. In the full data, 403 (1.9%) are marked active. 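Unnormalised raw counts per well; ratio z-scores behind the hit calls and whether each hit raises or lowers signal are not deposited.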 The numbers tell different reagents against one gene apart. A plus sign joins genes that one reagent is predicted to hit. Not stated in the record: the amount of reagent.

- Purpose: 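Genes whose knock-down alters Notch-dependent transcription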 (primary screen)
- Cells: Drosophila Kc167 cells
- Knock-down reagent: long dsRNA against Drosophila genes
- Duration: about 5 days (4 days dsRNA, then 24 h after transfection)
- Conditions: transfection of constitutively active membrane-tethered Notch lacking the extracellular domain, read 24 h later
- Read-out: 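Firefly luciferase from an E(spl)m3 reporter with active Notch, plus control-promoter and uninduced reporter wells for normalisation; unnormalised counts, duplicate wells a and b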
- Reading the numbers: induced reporter light, run 1, well a and induced reporter light, run 1, well b: higher = more light from the Notch target reporter with active Notch; control promoter light, run 1, well a and control promoter light, run 1, well b: higher = more light from the viral control promoter (cell number, transfection, viability); uninduced reporter light, run 1, well a: higher = more light from the Notch target reporter without active Notch
- Call rule: 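Wells with low control signal or poorly matching duplicates excluded; duplicates averaged; per source plate, z beyond ±2 for induced/control log2 ratio or beyond ±1.8 for induced/uninduced marks a hit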
- Calls: active = modifier hit (raised or lowered Notch signal); inactive = not a hit

no.	gene	dsRNA no.	induced reporter light, run 1, well a	induced reporter light, run 1, well b	control promoter light, run 1, well a	control promoter light, run 1, well b	uninduced reporter light, run 1, well a	Outcome
1	CG17707	1	1.09e5	91720	1.03e5	1.33e5	9965	inactive
2	Sfp93F (Seminal fluid protein 93F)	1	2.33e5	3.03e5	3.55e5	4.03e5	16255	inactive
3	CG14568	1	1.03e5	1.02e5	95195	90965	7820	inactive
4	GstE13 (Glutathione S transferase E13)	1	1.62e5	2.01e5	1.89e5	2.05e5	12710	inactive
5	CG11349	1	1.06e5	87390	98410	89305	4005	inactive
6	CG33310	1	1.28e5	1.26e5	1.32e5	1.60e5	10880	inactive
7	CG9970	1	1.14e5	1.16e5	2.01e5	1.98e5	8938	inactive
8	mirr (mirror)	1	1.30e5	1.60e5	1.75e5	1.99e5	8740	inactive
9	fh (frataxin)	1	1.02e5	88815	96025	1.36e5	7755	inactive
10	ninaD (neither inactivation nor afterpotential D)	1	1.42e5	1.46e5	1.57e5	1.53e5	13250	inactive
11	CG15408	1	1.47e5	1.43e5	1.66e5	1.68e5	11000	inactive
12	Octbeta3R (Octopamine beta3 receptor)	1	1.08e5	87125	99680	66665	10775	inactive
13	Octbeta3R (Octopamine beta3 receptor)	2	49210	46025	60005	35245	4045	inactive
14	Octbeta3R (Octopamine beta3 receptor)	3						inactive
15	CG8778	1	90380	81010	1.26e5	1.08e5	8125	inactive
16	CG15927	1	68770	75150	81325	53135	4010	active
17	CG17187	1	69795	58925	75580	38630	4738	inactive
18	CG3517	1	1.51e5	1.69e5	1.57e5	2.08e5	14415	inactive
19	CG14421	1	1.04e5	1.07e5	1.89e5	2.04e5	9650	inactive
20	APP-BP1 (beta-Amyloid precursor protein binding protein 1)	1	1.62e5	1.07e5	1.87e5	1.86e5	6575	inactive
21	CG9570	1	1.09e5	1.05e5	1.18e5	1.59e5	11135	inactive
22	CG33155 + mRpL53	1	2.00e5	1.78e5	2.51e5	2.96e5	17695	inactive
23	rumi	1	1.38e5	1.26e5	1.60e5	1.72e5	14955	inactive
24	CG30470 (retired record)	1	75590	72075	75640	63880	12820	inactive
25	CG30470 (retired record)	2	86850	93565	1.17e5	1.13e5	8395	inactive
26	CG30470 (retired record)	3	69840	75000	1.04e5	1.13e5	8455	inactive
27	CG30470 (retired record)	4	77920	80970	1.46e5	1.10e5	6620	inactive
28	Lcp65Af	1	1.75e5	1.80e5	2.14e5	1.80e5	8055	inactive
29	SkpF + CG5357 (retired record)	1	1.96e5	1.66e5	1.86e5	1.82e5	11920	inactive
30	Pcyt2 (Phosphocholine cytidylyltransferase 2)	1	1.01e5	91305	1.72e5	1.65e5	7338	inactive
31	Nak (Numb-associated kinase)	1	1.99e5	1.87e5	1.82e5	1.94e5	18870	inactive
32	GstE14 (Glutathione S transferase E14)	1	83200	80895	1.07e5	1.02e5	7370	inactive
33	CarT (Carcinine transporter)	1	2.13e5	2.58e5	1.27e5	1.16e5	17155	active
34	CG13325	1	1.61e5	1.57e5	1.27e5	1.29e5	10460	inactive
35	CG13460	1	2.08e5	2.17e5	2.82e5	2.62e5	12330	inactive
36	Naxe (NAD(P)HX epimerase)	1	1.32e5	1.54e5	2.31e5	1.94e5	10510	inactive
37	Obp19d (Odorant-binding protein 19d)	1	75120	86150	94380	1.02e5	9980	inactive
38	Samtor (S-adenosylmethionine sensor upstream of TORC1)	1	1.57e5	1.66e5	1.22e5	1.51e5	14255	inactive
39	TTLL5 (Tubulin tyrosine ligase-like 5)	1	1.71e5	1.94e5	2.26e5	2.30e5	17275	inactive
40	hlk (hulk)	1	2.40e5	2.03e5	1.92e5	1.99e5	15265	inactive
41	hlk (hulk)	2	1.73e5	1.73e5	1.64e5	1.44e5	12120	inactive
42	CG6628	1	2.16e5	1.57e5	2.40e5	2.49e5	10010	inactive
43	Dp1 (Dodeca-satellite-binding protein 1)	1	85785	93360	1.35e5	1.25e5	6390	inactive
44	CG12984	1	1.43e5	1.22e5	1.20e5	1.03e5	8575	inactive
45	Cyp313a2 (Cytochrome P450 313a2)	1	66680	71085	48830	35555	4782	inactive
46	SIDL (Shal Interactor of Di-Leucine Motif)	1	1.18e5	1.25e5	83500	77850	10540	inactive
47	nonA-l (nonA-like)	1	2.09e5	1.77e5	2.35e5	2.49e5	16455	inactive
48	CG41099	1	96235	89105	89880	1.41e5	9425	inactive
49	CG41099	2	86800	1.06e5	89855	1.06e5	9525	inactive
50	CG4073	1	80570	93640	74850	51375	3850	inactive

A stretch taken from the entries so far:
no.	gene	dsRNA no.	induced reporter light, run 1, well a	induced reporter light, run 1, well b	control promoter light, run 1, well a	control promoter light, run 1, well b	uninduced reporter light, run 1, well a	Outcome
28	Lcp65Af	1	1.75e5	1.80e5	2.14e5	1.80e5	8055	inactive
29	SkpF + CG5357 (retired record)	1	1.96e5	1.66e5	1.86e5	1.82e5	11920	inactive
